Measurements as given in paper doi:10.1101/2023.09.04.556214.
Like-named read-outs stand apart in the source and are kept apart here. No constants are given. Whether binding was seen depends on the method and setting. In cells and extracts the contact can be indirect. Some binding calls cover weakened binding; strength is not graded here. For some of these results: Sequences can lack the tags named with a protein. Values belong to the binder of their own block, whether it stands above or below them.

Columns and labels:
[1] = biological target: PML5 CC^1-60 (N-terminal 60 amino acids), Myc- and YFP-tagged copies (Arabidopsis thaliana (Col-0)) (UniProt O64790); assay: co-IP
[2] = biological target: PML5 CC^1-60 (N-terminal 60 amino acids), Myc- and YFP-tagged copies (Arabidopsis thaliana (Col-0)) (UniProt O64790); assay: co-IP; remark: listed apart in the source
[3] = biological target: PML5 CC^1-60 split-YFP fusions (CC^1-60-cYFP^HA and CC^1-60-nYFP^MYC) (Arabidopsis thaliana (Col-0)) (UniProt O64790); assay: split reporter
[4] = biological target: PML5 (Potentially Membrane Localized 5) wild type, full length (Arabidopsis thaliana (Col-0)) (UniProt O64790); assay: co-IP
[5] = biological target: PML5 D362V (MHD mutant), full length (Arabidopsis thaliana (Col-0)) (UniProt O64790); assay: co-IP
[6] = biological target: PML5 K74R (P-loop mutant), full length (Arabidopsis thaliana (Col-0)) (UniProt O64790); assay: co-IP
[7] = biological target: PML5 GCC(2,3,4)A (N-myristoylation and S-acylation site mutant), full length (Arabidopsis thaliana (Col-0)) (UniProt O64790); assay: co-IP

B3: PML5 (Potentially Membrane Localized 5) wild type, full length (protein, UniProt O64790 1-762)
chain: MGCCFSVQFSFDDQTLVRIFNFLCGNINRNSFGVEERPTQPTIGQEEMLEKAWNRLMEDRVGIMGLHGMGGVGKTTLFKKIHNKFAKMSSRFDIVIWIVVSKGAKLSKLQEDIAEKLHLCDDLWKNKNESDKATDIHRVLKGKRFVLMLDDIWEKVDLEAIGVPYPSEVNKCKVAFTTRDQKVCGEMGDHKPMQVKCLEPEDAWELFKNKVGDNTLRSDPVIVELAREVAQKCRGLPLALSVIGETMASKTMVQEWEHAIDVLTRSAAEFSNMGNKILPILKYSYDSLGDEHIKSCFLYCALFPEDDEIYNEKLIDYWICEGFIGEDQVIKRARNKGYEMLGTLTLANLLTKVGTEHVVMHDVVREMALWIASDFGKQKENFVVRARVGLHERPEAKDWGAVRRMSLMDNHIEEITCESKCSELTTLFLQSNQLKNLSGEFIRYMQKLVVLDLSYNRDFNKLPEQISGLVSLQFLDLSNTSIKQLPVGLKKLKKLTFLNLAYTVRLCSISGISRLLSLRLLRLLGSKVHGDASVLKELQKLQNLQHLAITLSAELSLNQRLANLISILGIEGFLQKPFDLSFLASMENLSSLWVKNSYFSEIKCRESETASSYLRINPKIPCFTNLSRLGLSKCHSIKDLTWILFAPNLVYLYIEDSREVGEIINKEKATNLTSITPFLKLERLILYNLPKLESIYWSPLHFPRLLIIHVLDCPKLRKLPLNATSVPLVEEFQIRMYPPGLGNELEWEDEDTKNRFVLSIKK
binding [4]: binds

B4: PML5 D362V (MHD mutant), full length (protein, UniProt O64790 1-762)
chain: MGCCFSVQFSFDDQTLVRIFNFLCGNINRNSFGVEERPTQPTIGQEEMLEKAWNRLMEDRVGIMGLHGMGGVGKTTLFKKIHNKFAKMSSRFDIVIWIVVSKGAKLSKLQEDIAEKLHLCDDLWKNKNESDKATDIHRVLKGKRFVLMLDDIWEKVDLEAIGVPYPSEVNKCKVAFTTRDQKVCGEMGDHKPMQVKCLEPEDAWELFKNKVGDNTLRSDPVIVELAREVAQKCRGLPLALSVIGETMASKTMVQEWEHAIDVLTRSAAEFSNMGNKILPILKYSYDSLGDEHIKSCFLYCALFPEDDEIYNEKLIDYWICEGFIGEDQVIKRARNKGYEMLGTLTLANLLTKVGTEHVVMHVVVREMALWIASDFGKQKENFVVRARVGLHERPEAKDWGAVRRMSLMDNHIEEITCESKCSELTTLFLQSNQLKNLSGEFIRYMQKLVVLDLSYNRDFNKLPEQISGLVSLQFLDLSNTSIKQLPVGLKKLKKLTFLNLAYTVRLCSISGISRLLSLRLLRLLGSKVHGDASVLKELQKLQNLQHLAITLSAELSLNQRLANLISILGIEGFLQKPFDLSFLASMENLSSLWVKNSYFSEIKCRESETASSYLRINPKIPCFTNLSRLGLSKCHSIKDLTWILFAPNLVYLYIEDSREVGEIINKEKATNLTSITPFLKLERLILYNLPKLESIYWSPLHFPRLLIIHVLDCPKLRKLPLNATSVPLVEEFQIRMYPPGLGNELEWEDEDTKNRFVLSIKK
binding [5]: binds

B6: PML5 GCC(2,3,4)A (N-myristoylation and S-acylation site mutant), full length (protein, UniProt O64790 1-762)
chain: MAAAFSVQFSFDDQTLVRIFNFLCGNINRNSFGVEERPTQPTIGQEEMLEKAWNRLMEDRVGIMGLHGMGGVGKTTLFKKIHNKFAKMSSRFDIVIWIVVSKGAKLSKLQEDIAEKLHLCDDLWKNKNESDKATDIHRVLKGKRFVLMLDDIWEKVDLEAIGVPYPSEVNKCKVAFTTRDQKVCGEMGDHKPMQVKCLEPEDAWELFKNKVGDNTLRSDPVIVELAREVAQKCRGLPLALSVIGETMASKTMVQEWEHAIDVLTRSAAEFSNMGNKILPILKYSYDSLGDEHIKSCFLYCALFPEDDEIYNEKLIDYWICEGFIGEDQVIKRARNKGYEMLGTLTLANLLTKVGTEHVVMHDVVREMALWIASDFGKQKENFVVRARVGLHERPEAKDWGAVRRMSLMDNHIEEITCESKCSELTTLFLQSNQLKNLSGEFIRYMQKLVVLDLSYNRDFNKLPEQISGLVSLQFLDLSNTSIKQLPVGLKKLKKLTFLNLAYTVRLCSISGISRLLSLRLLRLLGSKVHGDASVLKELQKLQNLQHLAITLSAELSLNQRLANLISILGIEGFLQKPFDLSFLASMENLSSLWVKNSYFSEIKCRESETASSYLRINPKIPCFTNLSRLGLSKCHSIKDLTWILFAPNLVYLYIEDSREVGEIINKEKATNLTSITPFLKLERLILYNLPKLESIYWSPLHFPRLLIIHVLDCPKLRKLPLNATSVPLVEEFQIRMYPPGLGNELEWEDEDTKNRFVLSIKK
binding [7]: binds

Other lines, results leading:

binding [1]: binds
binding [2]: binds
B1: PML5 CC^1-60 (N-terminal 60 amino acids), Myc- and YFP-tagged copies (domain or fragment, UniProt O64790 1-60)
chain: MGCCFSVQFSFDDQTLVRIFNFLCGNINRNSFGVEERPTQPTIGQEEMLEKAWNRLMEDR

binding [3]: binds
B2: PML5 CC^1-60 split-YFP fusions (CC^1-60-cYFP^HA and CC^1-60-nYFP^MYC) (domain or fragment, UniProt O64790 1-60)
chain: MGCCFSVQFSFDDQTLVRIFNFLCGNINRNSFGVEERPTQPTIGQEEMLEKAWNRLMEDR

binding [6]: binds
B5: PML5 K74R (P-loop mutant), full length (protein, UniProt O64790 1-762)
chain: MGCCFSVQFSFDDQTLVRIFNFLCGNINRNSFGVEERPTQPTIGQEEMLEKAWNRLMEDRVGIMGLHGMGGVGRTTLFKKIHNKFAKMSSRFDIVIWIVVSKGAKLSKLQEDIAEKLHLCDDLWKNKNESDKATDIHRVLKGKRFVLMLDDIWEKVDLEAIGVPYPSEVNKCKVAFTTRDQKVCGEMGDHKPMQVKCLEPEDAWELFKNKVGDNTLRSDPVIVELAREVAQKCRGLPLALSVIGETMASKTMVQEWEHAIDVLTRSAAEFSNMGNKILPILKYSYDSLGDEHIKSCFLYCALFPEDDEIYNEKLIDYWICEGFIGEDQVIKRARNKGYEMLGTLTLANLLTKVGTEHVVMHDVVREMALWIASDFGKQKENFVVRARVGLHERPEAKDWGAVRRMSLMDNHIEEITCESKCSELTTLFLQSNQLKNLSGEFIRYMQKLVVLDLSYNRDFNKLPEQISGLVSLQFLDLSNTSIKQLPVGLKKLKKLTFLNLAYTVRLCSISGISRLLSLRLLRLLGSKVHGDASVLKELQKLQNLQHLAITLSAELSLNQRLANLISILGIEGFLQKPFDLSFLASMENLSSLWVKNSYFSEIKCRESETASSYLRINPKIPCFTNLSRLGLSKCHSIKDLTWILFAPNLVYLYIEDSREVGEIINKEKATNLTSITPFLKLERLILYNLPKLESIYWSPLHFPRLLIIHVLDCPKLRKLPLNATSVPLVEEFQIRMYPPGLGNELEWEDEDTKNRFVLSIKK
